# Measured values: the supplement of paper PMC11732987, “Enantioselective OTUD7B fragment discovery through chemoproteomics screening and high-throughput optimisation” (Communications Chemistry, 2025)
# Some of the results follow. The data scatter; read single values as rough.
# Experiments:
# [1] = compound: ClCC(=O)N[C@@H]1CCCc2ccccc12; experiment: log2 mean competition ratio of IA-DTB cysteine labelling (DMSO/compound) (log2 ratio); higher = stronger cysteine engagement by compound; details: treatment time: 4 h, cell line lysate: HEK293T
# Experimental: (§1)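 IA-DTB competitive cysteine chemoproteomics in HEK293T RIPA lysate. Lysates were treated with compound 29 or 30 at 50 or 200 µM for 4 h, then IA-DTB (500 µM, 1 h), trypsin-digested, NeutrAvidin-enriched and analysed by diaPASEF. Competition ratio = intensity DMSO / intensity compound (n=4 treated, n=64 DMSO); binding: mean log2 CR ≥ 1 and p ≤ 0.05 plus QC filters. Target is the cysteine site.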
# [2] = compound: ClCC(=O)N[C@H]1CCCc2ccccc12; experiment: as above; details: treatment time: 4 h, cell line lysate: HEK293T
# Experimental: as §1
Target,log2 mean competition ratio ([1]; 50 µM),log2 mean competition ratio ([1]; 200 µM),log2 mean competition ratio ([2]; 50 µM),log2 mean competition ratio ([2]; 200 µM)
DOCK9 C613 (UniProt Q9BZ29),-0.267,-0.0211,-0.192,0.143
DHX57 C1349 (UniProt Q6P158),-0.0843,-0.146,-0.455,-0.192
DHX40 C42 (UniProt Q8IX18),0.0814,-0.184,0.788,-0.179
DPYSL4 C248,-0.371,-0.00929,-0.419,0.156
DHX34 C628 (UniProt Q14147),0.171,-0.0583,0.0271,0.0165
DHX37 C638 (UniProt Q8IY37),0.241,0.0726,0.155,0.165
DEPDC5 C966 (UniProt O75140),0.401,0.0688,-0.222,0.069
DMXL2 C1788 (UniProt Q8TDJ6),-0.139,0.451,-0.172,0.309
DICER1 C1406 (UniProt Q9UPY3),-0.19,-0.243,0.326,-0.107
DHPS C177,0.458,0.0075,0.588,0.0468
DNA2 C621 (UniProt P51530),-0.0686,-0.268,0.226,-0.187
DHX30 C765 (UniProt Q7L2E3),0.4,0.0379,0.253,0.09
DIS3 C213 (UniProt Q9Y2L1),-0.143,-0.293,0.171,-0.233
DIP2A C6 (UniProt Q14689),0.017,-0.0877,0.307,0.188
DNAJC13 C261 (UniProt O75165),-0.252,0.0124,-0.484,-0.0428
DOCK7 C608 (UniProt Q96N67),-0.22,-0.225,-0.068,-0.0795
DGCR8 C769 (UniProt Q8WYQ5),0.118,-0.466,0.0369,0.0727
DHX30 C1183 (UniProt Q7L2E3),0.142,-0.268,0.351,-0.212
DENND4C C1105 (UniProt Q5VZ89),-0.132,0.0299,-0.437,-0.125
DENND4B C815 (UniProt O75064),-0.0853,-0.145,-0.328,-0.171
DHX37 C1083 (UniProt Q8IY37),0.00925,0.104,-0.11,0.128
DGKQ C607 (UniProt P52824),-0.0058,0.0712,-0.294,0.317
DOCK11 C615,0.25,-0.245,0.146,-0.0116
DOHH C122 (UniProt Q9BU89),-0.135,-0.25,0.00568,-0.13

# Some entries already given with just log2 mean competition ratio ([1]; 50 µM).
Target	log2 mean competition ratio ([1]; 50 µM)
DHX30 C765 (UniProt Q7L2E3)	0.4
DIP2A C6 (UniProt Q14689)	0.017

# Quoted from the listing for reference:
Target,log2 mean competition ratio ([1]; 50 µM),log2 mean competition ratio ([1]; 200 µM),log2 mean competition ratio ([2]; 50 µM),log2 mean competition ratio ([2]; 200 µM)
DEPDC5 C966 (UniProt O75140),0.401,0.0688,-0.222,0.069
DMXL2 C1788 (UniProt Q8TDJ6),-0.139,0.451,-0.172,0.309

# Going on with the list:

Target,log2 mean competition ratio ([1]; 50 µM),log2 mean competition ratio ([1]; 200 µM),log2 mean competition ratio ([2]; 50 µM),log2 mean competition ratio ([2]; 200 µM)
DFFB C194 (UniProt O76075),0.16,0.513,0.546,0.542
DNMBP C1134 (UniProt Q6XZF7),0.298,0.0961,0.119,0.204
DNAJC7 C164 (UniProt Q99615),-0.0304,0.279,-0.0546,0.182
DENND4A C1561 (UniProt Q7Z401),0.0395,0.0196,0.0642,0.408
DIAPH1 C796,-0.202,0.172,-0.0465,0.184
DIPK2A C135 (UniProt Q8NDZ4),0.182,-0.138,0.0282,0.406
DHX16 C37 (UniProt O60231),-0.04,0.0863,-0.176,0.0184
DNAAF5 C612 (UniProt Q86Y56),0.0831,-0.088,0.0925,-0.0962
DPYSL2 C504 (UniProt Q16555),-0.12,-0.136,-0.0234,-0.102
DRG1 C195 (UniProt Q9Y295),-0.324,-0.0281,-0.401,-0.205
DPY19L3 C36 (UniProt Q6ZPD9),-0.143,0.431,-0.115,0.315
DNAJC6 C382 (UniProt O75061),-0.0873,0.266,-0.233,0.207
DHX57 C453 (UniProt Q6P158),0.493,-0.314,0.273,-0.312
DHX34 C57 (UniProt Q14147),-0.395,0.618,0.161,0.652
DHX16 C714 (UniProt O60231),-0.0532,-0.18,0.373,-0.0327
DENND4A C1698 (UniProt Q7Z401),0.315,-0.0858,0.0596,0.127
DENND4C C1045 (UniProt Q5VZ89),-0.0416,0.0636,-0.108,0.101
DNA2 C718 (UniProt P51530),-0.198,0.295,-0.0417,0.522
DNAJC13 C149 (UniProt O75165),0.106,-0.0805,0.189,-0.0114
DNM1L C431 (UniProt O00429),0.146,0.224,-0.647,0.104
DEPDC5 C498 (UniProt O75140),-0.238,-0.439,0.123,-0.23
DNAAF2 C673 (UniProt Q9NVR5),-0.0972,-0.0412,-0.212,-0.0721
DOCK1 C1254 (UniProt Q14185),0.0597,0.00743,-0.909,-0.0761
DHX38 C865 (UniProt Q92620),-0.111,0.138,-0.122,-0.0306
